Results are given in words; binding and its absence hold for the method and conditions named. For some assays here: Binding seen in cells or lysates may run through a third protein. Some entries that bind do so weakly or less than the wild type.
What was measured:
[1] = target: Ring1B (mouse (endogenous in ESCs)) (UniProt Q9CQJ4); assay: sucrose gradient sedimentation; 1.5 mg WT (OS25) ESC nuclear extract on a 10-50% sucrose gradient in BC100 buffer, SW41 41 000 rpm 28 h at 4 C; fractions immunoblotted for Ring1B and Dmap1
[2] = target: p400 (mouse (endogenous in ESCs)) (UniProt Q8CHI8); assay: SEC; 1 mg WT E14 ESC nuclear extract treated with RNase A and Benzonase, Superose 6 10/300 GL in BC200 buffer; every other 0.5 ml fraction TCA precipitated and immunoblotted
Ring1BI53A = Ring1BI53A (UniProt Q9CQJ4); assay: co-IP; IP of Ring1B from nuclear extracts of WT ESCs and of Ring1B-/- ESCs rescued with full length Ring1B or Ring1BI53A; 12% SDS-PAGE, immunoblot with anti-Dmap1
[3] = target: full length Ring1B (rescue) (UniProt Q9CQJ4); assay: as above
[4] = target: Ring1B (mouse (endogenous in ESCs)) (UniProt Q9CQJ4); assay: as above

Protein sequences, listed by entry. Tags and fused reporters are not part of them. Lines headed by an entry give the natural chain unless they say otherwise; changes in a name come on top.
UniProt Q9CQJ4: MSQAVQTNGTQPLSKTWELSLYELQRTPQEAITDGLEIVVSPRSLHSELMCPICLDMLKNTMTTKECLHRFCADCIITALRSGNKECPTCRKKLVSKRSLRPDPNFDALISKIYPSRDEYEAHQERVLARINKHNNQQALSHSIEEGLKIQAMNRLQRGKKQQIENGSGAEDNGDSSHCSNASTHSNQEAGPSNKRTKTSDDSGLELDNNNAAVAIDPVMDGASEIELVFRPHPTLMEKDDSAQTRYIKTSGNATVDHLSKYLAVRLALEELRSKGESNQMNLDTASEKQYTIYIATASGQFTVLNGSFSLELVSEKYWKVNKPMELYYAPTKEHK
UniProt Q8CHI8: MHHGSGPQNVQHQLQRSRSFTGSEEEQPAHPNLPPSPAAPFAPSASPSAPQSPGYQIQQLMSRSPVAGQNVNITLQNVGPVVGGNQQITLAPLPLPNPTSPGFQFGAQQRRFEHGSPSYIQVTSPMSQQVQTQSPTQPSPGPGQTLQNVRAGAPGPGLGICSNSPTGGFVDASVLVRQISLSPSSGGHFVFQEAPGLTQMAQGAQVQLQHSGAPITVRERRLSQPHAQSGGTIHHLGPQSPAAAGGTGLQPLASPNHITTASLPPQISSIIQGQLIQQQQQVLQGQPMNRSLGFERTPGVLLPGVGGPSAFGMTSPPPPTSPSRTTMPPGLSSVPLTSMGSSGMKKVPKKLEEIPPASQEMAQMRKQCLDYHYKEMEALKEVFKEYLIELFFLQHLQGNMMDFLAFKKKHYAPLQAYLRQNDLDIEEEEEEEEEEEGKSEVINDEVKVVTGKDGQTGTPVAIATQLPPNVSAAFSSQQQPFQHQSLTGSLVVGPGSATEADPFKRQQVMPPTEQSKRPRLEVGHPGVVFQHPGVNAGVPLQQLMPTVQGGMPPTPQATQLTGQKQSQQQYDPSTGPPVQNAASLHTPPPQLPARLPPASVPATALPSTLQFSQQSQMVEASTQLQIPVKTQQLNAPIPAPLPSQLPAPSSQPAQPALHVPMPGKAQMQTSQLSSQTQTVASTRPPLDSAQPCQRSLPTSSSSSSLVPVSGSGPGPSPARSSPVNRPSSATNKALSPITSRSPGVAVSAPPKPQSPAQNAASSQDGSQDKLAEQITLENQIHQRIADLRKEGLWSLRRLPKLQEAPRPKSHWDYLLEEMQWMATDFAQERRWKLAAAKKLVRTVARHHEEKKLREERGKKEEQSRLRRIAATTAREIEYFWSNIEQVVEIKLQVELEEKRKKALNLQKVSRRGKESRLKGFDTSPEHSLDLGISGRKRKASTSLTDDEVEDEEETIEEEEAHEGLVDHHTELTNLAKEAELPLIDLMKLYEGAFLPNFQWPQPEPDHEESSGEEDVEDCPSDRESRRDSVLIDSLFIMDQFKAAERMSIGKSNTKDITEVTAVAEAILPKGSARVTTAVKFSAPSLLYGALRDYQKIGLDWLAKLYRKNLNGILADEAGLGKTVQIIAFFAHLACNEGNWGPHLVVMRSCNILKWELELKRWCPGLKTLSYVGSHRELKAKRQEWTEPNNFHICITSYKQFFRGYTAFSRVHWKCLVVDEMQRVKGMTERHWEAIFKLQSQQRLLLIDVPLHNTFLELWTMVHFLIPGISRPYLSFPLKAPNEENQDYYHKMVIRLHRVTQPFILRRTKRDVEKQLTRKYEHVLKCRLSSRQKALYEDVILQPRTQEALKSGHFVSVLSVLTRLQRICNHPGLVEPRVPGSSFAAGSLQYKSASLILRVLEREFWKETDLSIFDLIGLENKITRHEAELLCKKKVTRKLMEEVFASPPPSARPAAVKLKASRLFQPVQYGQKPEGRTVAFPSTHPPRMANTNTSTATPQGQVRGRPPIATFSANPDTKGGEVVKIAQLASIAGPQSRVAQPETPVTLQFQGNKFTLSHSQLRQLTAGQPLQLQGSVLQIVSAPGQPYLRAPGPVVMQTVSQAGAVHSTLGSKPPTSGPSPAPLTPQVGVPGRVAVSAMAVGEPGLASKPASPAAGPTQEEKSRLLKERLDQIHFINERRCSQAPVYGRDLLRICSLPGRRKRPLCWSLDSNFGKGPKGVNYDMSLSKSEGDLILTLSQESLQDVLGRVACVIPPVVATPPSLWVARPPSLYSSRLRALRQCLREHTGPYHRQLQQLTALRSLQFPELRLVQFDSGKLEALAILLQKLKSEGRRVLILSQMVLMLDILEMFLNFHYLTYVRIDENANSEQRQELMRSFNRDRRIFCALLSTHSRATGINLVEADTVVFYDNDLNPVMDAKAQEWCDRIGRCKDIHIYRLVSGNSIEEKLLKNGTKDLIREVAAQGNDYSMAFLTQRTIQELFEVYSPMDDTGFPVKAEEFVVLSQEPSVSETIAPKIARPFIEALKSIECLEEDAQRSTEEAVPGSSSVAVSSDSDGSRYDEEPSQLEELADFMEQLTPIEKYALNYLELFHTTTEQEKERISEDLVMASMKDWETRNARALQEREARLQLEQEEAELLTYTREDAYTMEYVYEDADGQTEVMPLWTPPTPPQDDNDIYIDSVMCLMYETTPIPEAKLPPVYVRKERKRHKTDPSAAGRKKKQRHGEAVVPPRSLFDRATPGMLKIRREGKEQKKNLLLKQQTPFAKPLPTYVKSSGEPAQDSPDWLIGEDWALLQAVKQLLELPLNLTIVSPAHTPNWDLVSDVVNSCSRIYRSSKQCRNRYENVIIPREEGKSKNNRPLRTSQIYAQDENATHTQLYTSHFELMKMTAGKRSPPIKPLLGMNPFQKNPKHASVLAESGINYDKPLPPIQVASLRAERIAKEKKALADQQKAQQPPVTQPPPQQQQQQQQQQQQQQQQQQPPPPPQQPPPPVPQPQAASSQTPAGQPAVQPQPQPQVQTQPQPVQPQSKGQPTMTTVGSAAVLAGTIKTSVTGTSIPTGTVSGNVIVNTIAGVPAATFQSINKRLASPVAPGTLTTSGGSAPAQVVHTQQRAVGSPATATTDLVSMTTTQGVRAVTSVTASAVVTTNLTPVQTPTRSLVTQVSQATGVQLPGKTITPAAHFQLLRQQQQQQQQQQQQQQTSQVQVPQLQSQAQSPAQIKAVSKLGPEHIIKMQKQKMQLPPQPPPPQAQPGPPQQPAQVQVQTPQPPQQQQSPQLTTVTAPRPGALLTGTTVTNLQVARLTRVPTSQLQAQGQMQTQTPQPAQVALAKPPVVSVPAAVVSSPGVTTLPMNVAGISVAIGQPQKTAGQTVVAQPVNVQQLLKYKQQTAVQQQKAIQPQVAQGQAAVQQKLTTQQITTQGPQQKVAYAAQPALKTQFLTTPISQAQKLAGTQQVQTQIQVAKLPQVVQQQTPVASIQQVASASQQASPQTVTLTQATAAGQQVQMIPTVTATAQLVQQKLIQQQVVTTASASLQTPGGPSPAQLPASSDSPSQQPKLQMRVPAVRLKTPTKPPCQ
UniProt Q9JI44: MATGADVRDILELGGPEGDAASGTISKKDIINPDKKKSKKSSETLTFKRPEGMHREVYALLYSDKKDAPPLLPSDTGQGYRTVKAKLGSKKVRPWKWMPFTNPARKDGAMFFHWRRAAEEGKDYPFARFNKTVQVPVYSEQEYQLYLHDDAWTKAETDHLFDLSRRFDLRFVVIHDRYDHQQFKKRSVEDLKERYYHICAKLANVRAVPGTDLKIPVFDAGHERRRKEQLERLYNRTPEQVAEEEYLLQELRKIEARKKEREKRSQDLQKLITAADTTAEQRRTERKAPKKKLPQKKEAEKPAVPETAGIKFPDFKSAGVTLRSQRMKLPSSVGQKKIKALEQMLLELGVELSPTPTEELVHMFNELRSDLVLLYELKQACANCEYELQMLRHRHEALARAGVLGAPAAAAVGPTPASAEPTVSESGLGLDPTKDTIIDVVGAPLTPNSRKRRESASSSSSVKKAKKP

Measured: binding

Dmap1 (from UniProt Q9JI44 1-468)
binds: all assays above

— paper PMC3322156
